Positions count from the first letter of the chain named. Results are given in words; binding and its absence hold for the method and conditions named. Some results given as binding are weak or reduced against the parent protein; the word gives no strength.
B1: SEQ ID NO 6 (VHH)
VHH: QVQLQESGGGLVQAGGSLRLSCAASDRYFSSHTMAWFRQAPGKEREFVARVDWSGGSTEYADSVKGRFTISKDNAKNTVYLQMDSLKPEDAAVYYCAAGPYWGQGTQVTVSS
B2: SEQ ID NO 7 (VHH)
VHH: QVQLQESGGGLVQAGGSLRLSCVASGSIFSVDIMYWYRQAPGKQRERVGSMYSDGTTTYVDSVKGRFTISRGDSTDNAKRITYLQMNNLQPEDTAVYYCAAWAGSFYWGSGTQVTVSS
B3: SEQ ID NO 9 (VHH)
VHH: B2 VHH with G49A, Y52F, N88S, S110Q
B4: SEQ ID NO 2 (VHH)
VHH: QVQLQESGGGLVQAGGSLRLSCEATGLTFSGVAMAWFRQAPGKEREFVAIIRWSGSTTYYSDSAKGRFTISRDNAKNTVYLQMNSLKPEDTAVYYCAADPSDRFGEYDYWGRGTQVTVSS
B5: SEQ ID NO 13 (VHH)
VHH: QVQLQESGGGLVQAGGSLRLSCAASGRTSSIHLMAWFRQAPGKEREFLASIIWTGGTTYYAGTTFYGDSAEGRFTISNDNARNTGYLQMNSLKPEDTAVYYCAATSLVNPTRYDYWGQGTQVTVSS
B6: SEQ ID NO 14 (VHH)
VHH: B5 VHH with L48V, V108E
B7: SEQ ID NO 12 (VHH)
VHH: QVQLQESGGGLVQAGGSLRLSCAASGRTFRNYAMAWFRQAPGKEREFVAVIRRGGGDTYYSDSAEGRFTISRDNAKNTVYLQMNNLKPEDTAVYYCAADVSDDNTGKYDYWGQGTQVTVSS
B8: SEQ ID NO 11 (VHH)
VHH: QVQLQDSGGGLVQAGGSLRLSCAASGRIFSTHTMAWFRQAPGQEREFVSSISWNGAVTNYLDSVKGRFTISKDNAKNTVYLQMNSLKPEDTAVYYCAAGRNWGQGTQVTVSS
B9: SEQ ID NO 8 (VHH)
VHH: QVQLQDSGGGLVQAGGSLRLSCAASGRTFSGYSVAWFRQVPGKERELVASINRSGDNTYIEDSVKGRFTISTDNTKSTIYLQLNALKPEDTAVYYCAAPYGLGRYDSWGQGTQVTVSS
B10: SEQ ID NO 10 (VHH)
VHH: QVQLQDSGGGLVQAGGSLRLSCAASSRTFSVYTVAWFRQTPGGKEREFVAQINWNGDSTNYADSVKGRFTVSRDNVKNTVFLQMSTLKPEDTAVYYCAAGSNWGQGTQVTVSS

Molecular target: kappa light chains of human antibodies (human) (UniProt P0DOX7)
Assay: ELISA screening of VHH clones on human antibodies

binding | Binder
binds | B1
binds | B2
binds | B3
binds | B4
binds | B5
binds | B6
binds | B7
binds | B8
binds | B9
binds | B10

Reference: patent US20210347816A1
